Laboratory results reported in patent US9315496B2, “Benzopyrone derivative and use thereof” (HUAZHONG UNIVERSITY OF SCIENCE & TECHNOLOGY, priority 2011, dated 2016).

These compounds were tested on KM mice (assay: Catalepsy assay). Conditions: ratio of ED50 values, mice po.
Assay type: in vivo
Description: Healthy mice of Kunming breed (with half male and half female, (22±2)g) were provided by Qinglongshan Animal Cultivation Center, Nanjing.
Instruments: self-made bar-grabbing apparatus: stainless steel bar in mice box, which was 0.3 cm in diameter and […].
Corresponding solvent double-distilled water was administered intragastrically to the negative control group and the model group, corresponding positive drugs were administered intragastrically to the positive drug groups (a small amount of acetic acid was first added and then double-distilled water was added when dissolving), and corresponding dosages of compounds were administered intragastrically to the compound groups for each dosage, with the volume for intragastric administration as 0.1 ml/10 g. At 30 min, 60 min, 90 min after the intragastric administration, the two forepaws of the mice were gently placed on the bars (which were 20 cm in length, 0.3 cm in diameter, and 5.5 cm above the bench), and the hindpaws of the animals were placed on the bottom of the box. The durations for the mice to maintain the posture with the two forepaws on the bars were recorded, and 30 s of spasticity without moving was considered as the positive response. In the case the forepaws of the mice were not put down persistently, the observation was terminated at 60 s. The numbers of animals with positive response in each of the compound dosage groups were counted.

| Compound | catalepsy/MK-801 induced high activity | catalepsy/apomorphine induced clambering |
| --- | --- | --- |
| O=c1ccc2ccc(OCCCCN3CCC(c4noc5cc(F)ccc45)CC3)cc2o1 [Compound 1, 7-(4-(4-(3-(6-fluoro-benzisoxazole)-1-piperidyl)-n-butoxy))-2H-benzopyran-2-one] | 2.35 | 4.41 |
| O=C1CCc2ccc(OCCCCN3CCN(c4cccc(Cl)c4Cl)CC3)cc2N1 [aripiprazole, reference compound] | 20.00 | 11.43 |
| O=C1Cc2cc(CCN3CCN(c4nsc5ccccc45)CC3)c(Cl)cc2N1 [ziprasidone, reference compound] | 54.29 | 82.16 |
| Cc1cc(=O)oc2c(Cl)c(OCCCCN3CCC(c4noc5cc(F)ccc45)CC3)ccc12 [Compound 19, 7-(4-(4-(3-(6-fluoro-benzisoxazole)-1-piperidyl)-n-butoxy))-4-methyl-8-chloro-2H-benzopyran-2-one] | 53.27 | 42.17 |
| Cc1cc(=O)oc2c(C)c(OCCCCN3CCC(c4noc5cc(F)ccc45)CC3)ccc12 [Compound 23, 7-(4-(4-(3-(6-fluoro-benzisoxazole)-1-piperidyl)-n-butoxy))-4,8-dimethyl-2H-benzopyran-2-one] | 10.88 | 219.71 |
| Cc1cc(=O)oc2cc(OCCCCN3CCC(c4noc5cc(F)ccc45)CC3)ccc12 [Compound 6, 7-(4-(4-(3-(6-fluoro-benzisoxazole)-1-piperidyl)-n-butoxy))-4-methyl-2H-benzopyran-2-one] | 2.13 | 6.18 |
| OCCOCCN1CCN(C2=Nc3ccccc3Sc3ccccc32)CC1 [quetiapine, reference compound] | 79.21 | 396.04 |
| O=C(CCCN1CCC(O)(c2ccc(Cl)cc2)CC1)c1ccc(F)cc1 [haloperidol, reference compound] | 4.40 | 4.89 |
| Cc1cc(=O)oc2cc(OCCCN3CCC(c4noc5cc(F)ccc45)CC3)ccc12 [Compound 7, 7-(3-(4-(3-(6-fluoro-benzisoxazole)-1-piperidyl)-n-propoxy))-4-methyl-2H-benzopyran-2-one] | 5.56 | 10.00 |
